Reference: the supplement of paper PMC10849652
The other results are listed elsewhere or left out. Residues, ends and D or L forms follow the SMILES beside them. *: point of attachment. Cbz = O=C(OCc1ccccc1)*

By UniProt entry, the sequences of proteins in these tests, tags left out. Where a name states a change or a piece, a line headed by the entry shows the natural chain unless it says otherwise.
UniProt Q3MHD2: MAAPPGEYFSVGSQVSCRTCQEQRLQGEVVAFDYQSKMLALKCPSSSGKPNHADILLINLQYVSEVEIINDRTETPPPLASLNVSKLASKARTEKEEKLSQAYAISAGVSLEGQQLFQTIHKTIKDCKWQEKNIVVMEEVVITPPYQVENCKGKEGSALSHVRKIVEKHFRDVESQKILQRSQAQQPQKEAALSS
UniProt O00754: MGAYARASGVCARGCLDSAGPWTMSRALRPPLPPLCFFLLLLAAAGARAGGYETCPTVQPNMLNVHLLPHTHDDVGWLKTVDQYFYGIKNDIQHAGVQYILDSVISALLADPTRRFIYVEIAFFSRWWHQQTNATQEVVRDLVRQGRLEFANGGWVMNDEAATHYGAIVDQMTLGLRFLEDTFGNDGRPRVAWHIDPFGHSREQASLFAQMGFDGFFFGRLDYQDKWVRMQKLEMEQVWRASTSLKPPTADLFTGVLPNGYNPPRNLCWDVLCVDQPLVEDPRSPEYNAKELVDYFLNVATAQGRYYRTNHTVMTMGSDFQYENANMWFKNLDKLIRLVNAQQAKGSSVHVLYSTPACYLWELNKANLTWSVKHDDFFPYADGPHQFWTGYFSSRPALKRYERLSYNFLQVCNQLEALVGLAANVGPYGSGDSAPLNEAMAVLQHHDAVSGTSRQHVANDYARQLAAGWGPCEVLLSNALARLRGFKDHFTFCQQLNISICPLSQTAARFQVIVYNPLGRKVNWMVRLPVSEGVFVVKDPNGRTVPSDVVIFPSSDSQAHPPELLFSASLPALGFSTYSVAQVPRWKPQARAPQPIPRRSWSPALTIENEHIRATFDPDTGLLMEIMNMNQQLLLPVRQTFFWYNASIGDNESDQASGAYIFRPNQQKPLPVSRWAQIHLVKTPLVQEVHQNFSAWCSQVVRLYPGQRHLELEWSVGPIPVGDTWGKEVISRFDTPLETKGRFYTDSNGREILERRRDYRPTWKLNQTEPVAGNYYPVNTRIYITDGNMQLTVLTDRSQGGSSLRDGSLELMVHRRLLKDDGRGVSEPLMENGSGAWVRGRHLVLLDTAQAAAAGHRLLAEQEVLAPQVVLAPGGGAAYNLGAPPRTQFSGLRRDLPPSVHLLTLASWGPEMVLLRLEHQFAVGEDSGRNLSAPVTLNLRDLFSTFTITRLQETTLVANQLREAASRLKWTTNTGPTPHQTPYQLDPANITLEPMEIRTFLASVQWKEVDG
UniProt Q6ZN28: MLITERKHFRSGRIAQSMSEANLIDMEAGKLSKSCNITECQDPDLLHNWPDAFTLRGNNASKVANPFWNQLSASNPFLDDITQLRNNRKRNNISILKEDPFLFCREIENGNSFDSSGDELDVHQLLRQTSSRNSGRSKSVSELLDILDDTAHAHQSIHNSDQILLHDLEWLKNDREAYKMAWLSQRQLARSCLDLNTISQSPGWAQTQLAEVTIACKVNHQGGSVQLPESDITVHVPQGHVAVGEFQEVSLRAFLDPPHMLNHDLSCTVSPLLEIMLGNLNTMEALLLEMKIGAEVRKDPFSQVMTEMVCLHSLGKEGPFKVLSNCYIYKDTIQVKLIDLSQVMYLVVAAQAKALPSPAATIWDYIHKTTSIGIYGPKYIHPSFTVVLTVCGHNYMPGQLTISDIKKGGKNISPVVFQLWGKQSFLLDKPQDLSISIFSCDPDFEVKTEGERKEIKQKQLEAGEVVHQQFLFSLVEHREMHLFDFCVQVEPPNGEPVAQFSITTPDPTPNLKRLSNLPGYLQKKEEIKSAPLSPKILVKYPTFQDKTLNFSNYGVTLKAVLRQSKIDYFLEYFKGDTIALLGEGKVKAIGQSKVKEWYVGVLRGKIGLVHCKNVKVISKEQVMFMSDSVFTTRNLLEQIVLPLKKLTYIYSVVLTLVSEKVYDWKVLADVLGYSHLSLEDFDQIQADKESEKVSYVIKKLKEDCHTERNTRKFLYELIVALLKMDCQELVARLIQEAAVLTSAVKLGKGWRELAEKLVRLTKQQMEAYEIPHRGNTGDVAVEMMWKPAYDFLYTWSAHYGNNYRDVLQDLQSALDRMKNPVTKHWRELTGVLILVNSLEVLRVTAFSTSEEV
UniProt P53778: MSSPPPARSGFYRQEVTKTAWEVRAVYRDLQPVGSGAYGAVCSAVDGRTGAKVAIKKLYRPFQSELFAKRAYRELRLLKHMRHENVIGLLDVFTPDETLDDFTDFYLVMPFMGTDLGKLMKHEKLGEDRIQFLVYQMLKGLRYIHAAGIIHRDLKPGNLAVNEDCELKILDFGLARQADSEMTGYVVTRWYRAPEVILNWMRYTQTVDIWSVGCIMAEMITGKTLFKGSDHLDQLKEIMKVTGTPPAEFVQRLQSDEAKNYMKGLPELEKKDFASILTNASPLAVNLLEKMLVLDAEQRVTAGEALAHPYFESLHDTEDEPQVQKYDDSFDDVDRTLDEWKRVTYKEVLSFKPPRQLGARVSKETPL
UniProt Q9UPY8, whole entry, looked up: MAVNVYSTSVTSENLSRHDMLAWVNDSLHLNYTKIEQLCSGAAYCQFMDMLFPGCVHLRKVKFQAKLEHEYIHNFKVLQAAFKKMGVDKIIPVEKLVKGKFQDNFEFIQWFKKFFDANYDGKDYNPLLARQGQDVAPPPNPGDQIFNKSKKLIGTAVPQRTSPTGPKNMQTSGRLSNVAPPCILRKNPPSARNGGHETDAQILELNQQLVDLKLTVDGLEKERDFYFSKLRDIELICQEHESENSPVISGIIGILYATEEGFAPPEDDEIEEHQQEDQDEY
UniProt O95372: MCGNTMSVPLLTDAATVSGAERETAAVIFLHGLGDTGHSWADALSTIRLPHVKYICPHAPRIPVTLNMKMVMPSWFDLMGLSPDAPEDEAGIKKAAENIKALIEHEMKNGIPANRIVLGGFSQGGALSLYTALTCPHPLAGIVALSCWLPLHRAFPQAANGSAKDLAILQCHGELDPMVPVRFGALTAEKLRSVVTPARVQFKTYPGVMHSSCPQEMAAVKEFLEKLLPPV
UniProt Q8WV07: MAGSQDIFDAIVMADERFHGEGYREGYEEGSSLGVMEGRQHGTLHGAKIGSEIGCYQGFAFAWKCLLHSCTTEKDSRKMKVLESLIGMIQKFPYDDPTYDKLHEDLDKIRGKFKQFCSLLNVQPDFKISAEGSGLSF
UniProt Q9Y2U5: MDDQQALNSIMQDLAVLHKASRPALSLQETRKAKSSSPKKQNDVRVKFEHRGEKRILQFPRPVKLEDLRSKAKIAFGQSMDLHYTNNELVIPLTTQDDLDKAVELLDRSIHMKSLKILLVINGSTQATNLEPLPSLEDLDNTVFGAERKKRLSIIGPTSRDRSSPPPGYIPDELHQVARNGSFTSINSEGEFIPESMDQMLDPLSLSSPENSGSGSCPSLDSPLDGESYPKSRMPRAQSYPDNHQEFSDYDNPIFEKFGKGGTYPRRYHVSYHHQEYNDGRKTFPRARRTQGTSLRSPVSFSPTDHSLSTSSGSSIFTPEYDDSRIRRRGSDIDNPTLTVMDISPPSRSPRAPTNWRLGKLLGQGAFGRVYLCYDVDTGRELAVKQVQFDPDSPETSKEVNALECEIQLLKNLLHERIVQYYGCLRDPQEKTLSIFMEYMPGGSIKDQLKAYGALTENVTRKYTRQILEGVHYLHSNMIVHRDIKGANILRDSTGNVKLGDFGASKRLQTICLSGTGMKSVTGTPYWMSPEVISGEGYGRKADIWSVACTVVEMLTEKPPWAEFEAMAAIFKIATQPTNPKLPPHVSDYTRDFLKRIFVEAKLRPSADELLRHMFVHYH
UniProt P27448: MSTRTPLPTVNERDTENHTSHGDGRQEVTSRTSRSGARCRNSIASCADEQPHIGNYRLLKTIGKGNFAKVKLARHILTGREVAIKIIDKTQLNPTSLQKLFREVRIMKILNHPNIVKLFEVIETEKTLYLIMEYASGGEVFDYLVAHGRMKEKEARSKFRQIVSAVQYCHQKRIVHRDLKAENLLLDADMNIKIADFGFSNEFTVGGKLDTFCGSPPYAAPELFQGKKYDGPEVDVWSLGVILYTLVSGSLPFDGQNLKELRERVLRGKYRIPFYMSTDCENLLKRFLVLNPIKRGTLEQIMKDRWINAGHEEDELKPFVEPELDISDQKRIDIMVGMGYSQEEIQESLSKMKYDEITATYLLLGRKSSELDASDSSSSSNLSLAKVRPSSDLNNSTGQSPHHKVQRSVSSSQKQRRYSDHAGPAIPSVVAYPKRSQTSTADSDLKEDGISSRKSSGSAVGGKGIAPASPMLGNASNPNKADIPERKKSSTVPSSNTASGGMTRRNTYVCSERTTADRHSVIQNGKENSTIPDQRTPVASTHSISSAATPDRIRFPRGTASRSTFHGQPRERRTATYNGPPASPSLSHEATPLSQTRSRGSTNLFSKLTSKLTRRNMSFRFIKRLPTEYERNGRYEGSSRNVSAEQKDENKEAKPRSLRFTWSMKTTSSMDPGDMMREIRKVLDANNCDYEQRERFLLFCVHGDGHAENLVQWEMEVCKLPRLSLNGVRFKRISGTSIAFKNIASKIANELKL
UniProt Q9Y6R4: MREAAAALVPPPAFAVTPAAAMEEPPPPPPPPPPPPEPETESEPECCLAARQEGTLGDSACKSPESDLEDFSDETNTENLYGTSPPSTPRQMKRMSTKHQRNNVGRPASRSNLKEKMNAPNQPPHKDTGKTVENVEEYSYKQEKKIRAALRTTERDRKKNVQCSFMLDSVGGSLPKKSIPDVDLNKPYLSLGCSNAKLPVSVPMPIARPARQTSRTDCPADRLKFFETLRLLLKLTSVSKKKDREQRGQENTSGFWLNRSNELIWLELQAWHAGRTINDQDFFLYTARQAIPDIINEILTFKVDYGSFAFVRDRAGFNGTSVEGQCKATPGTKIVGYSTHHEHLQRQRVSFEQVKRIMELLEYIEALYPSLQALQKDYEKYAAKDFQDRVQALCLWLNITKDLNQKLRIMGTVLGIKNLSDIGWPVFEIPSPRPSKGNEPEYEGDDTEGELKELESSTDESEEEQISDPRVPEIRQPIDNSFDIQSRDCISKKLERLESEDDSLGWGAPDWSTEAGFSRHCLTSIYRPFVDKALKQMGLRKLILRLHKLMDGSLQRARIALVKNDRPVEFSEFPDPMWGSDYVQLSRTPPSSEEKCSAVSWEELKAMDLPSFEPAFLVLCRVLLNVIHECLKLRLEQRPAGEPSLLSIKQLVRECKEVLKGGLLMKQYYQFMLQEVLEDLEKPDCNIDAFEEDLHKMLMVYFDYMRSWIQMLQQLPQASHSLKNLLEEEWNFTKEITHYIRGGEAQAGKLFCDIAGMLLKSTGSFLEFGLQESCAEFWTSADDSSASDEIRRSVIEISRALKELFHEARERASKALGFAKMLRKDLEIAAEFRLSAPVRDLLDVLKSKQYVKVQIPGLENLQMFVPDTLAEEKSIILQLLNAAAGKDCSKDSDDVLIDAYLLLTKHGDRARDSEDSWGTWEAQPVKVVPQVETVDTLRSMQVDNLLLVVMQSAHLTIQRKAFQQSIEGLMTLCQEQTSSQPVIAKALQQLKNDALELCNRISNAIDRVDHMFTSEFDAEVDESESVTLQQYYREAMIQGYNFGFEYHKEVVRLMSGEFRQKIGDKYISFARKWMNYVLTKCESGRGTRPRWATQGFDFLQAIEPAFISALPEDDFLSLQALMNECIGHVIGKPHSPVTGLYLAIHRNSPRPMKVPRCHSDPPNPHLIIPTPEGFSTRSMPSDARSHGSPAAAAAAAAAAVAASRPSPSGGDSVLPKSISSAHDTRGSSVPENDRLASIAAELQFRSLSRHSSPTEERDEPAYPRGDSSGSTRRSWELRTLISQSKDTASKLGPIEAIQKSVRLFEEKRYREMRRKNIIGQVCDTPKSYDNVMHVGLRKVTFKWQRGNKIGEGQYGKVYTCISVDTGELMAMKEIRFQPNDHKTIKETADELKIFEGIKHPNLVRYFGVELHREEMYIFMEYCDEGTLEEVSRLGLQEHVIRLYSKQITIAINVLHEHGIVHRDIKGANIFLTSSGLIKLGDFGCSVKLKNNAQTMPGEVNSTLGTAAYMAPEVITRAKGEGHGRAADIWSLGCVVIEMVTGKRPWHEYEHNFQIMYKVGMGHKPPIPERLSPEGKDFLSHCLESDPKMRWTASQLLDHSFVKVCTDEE
UniProt P29966: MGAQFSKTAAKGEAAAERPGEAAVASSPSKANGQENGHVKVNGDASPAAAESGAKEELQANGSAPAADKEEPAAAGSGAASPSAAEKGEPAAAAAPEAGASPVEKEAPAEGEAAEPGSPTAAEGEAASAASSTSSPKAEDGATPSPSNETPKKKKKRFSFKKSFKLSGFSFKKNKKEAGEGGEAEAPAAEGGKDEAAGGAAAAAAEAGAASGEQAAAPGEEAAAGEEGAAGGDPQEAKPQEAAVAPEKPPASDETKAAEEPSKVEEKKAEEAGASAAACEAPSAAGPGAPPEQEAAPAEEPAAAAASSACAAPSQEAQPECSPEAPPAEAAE

Assays:
Test in all cases: log2 fold change, soluble protein after heating vs DMSO (PISA); higher = thermal stabilisation; K562 cells, 10 uM, 30 min; active = over 0.2 and 3.5 SD of the protein, either way, in both replicates (recomputed)
[1] = compound: C1COCCN1CCN2C3=CC=CC=C3N=C2NC(=O)C4=CC(=CC=C4)[N+](=O)[O-] [IRAK-1-4 Inhibitor I]
In short: (§1)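 For each measurement, 10 μM compound was applied for 30 min to K562 cells at 2×10^6 cells/mL. Aliquots were heated for 3 min across 48°C-58°C, pooled, and extracted in PBS with 0.5% NP-40 at 4°C; the supernatant after 21,000xg for 90 min was soluble protein. This was quantified by TMTpro 16plex LC-MS/MS with channel sums equalised, and thermal stability was reported relative to control samples from duplicates, on a log2 fold-change scale.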

[2] = compound: C=CC(=O)N1CCC[C@@H](n2nc(-c3ccc(Oc4ccccc4)cc3)c3c(N)ncnc32)C1 [ibrutinib]
In short: as §1

[3] = compound: CC(=O)c1cnc2ccc(-c3cc(Cl)c(O)c(Cl)c3)nc2c1N[C@H]1CC[C@H](CN(C)C)CC1
In short: as §1

[4] = compound: CC(C)(C)Cn1c(N)nc2ccc(-c3[nH]c(C(C)(C)C)nc3-c3ccc(F)cc3)nc21 [ralimetinib]
In short: as §1

[5] = compound: CC(C)(O)CC(=O)NCCn1ccc2ncnc(Nc3ccc(Oc4cccc(C(F)(F)F)c4)c(Cl)c3)c21
In short: as §1

[6] = compound: CC(C)C1=C2N=C(C=C(N2N=C1)NCC3=CC=CC=C3)NCCCCCCN
In short: as §1

[7] = compound: CC(C)C[C@@H](C=O)NC(=O)[C@H](CC(C)C)NC(=O)[C@H](CC(C)C)NC(=O)OCc1ccccc1
In short: as §1

[8] = compound: CC(C)N(C[C@H]1O[C@@H](n2cnc3c(N)ncnc32)[C@H](O)[C@@H]1O)[C@H]1C[C@@H](CCc2nc3cc(C(C)(C)C)ccc3[nH]2)C1 [pinometostat]
In short: as §1

[9] = compound: CC1=C(C(CC(=O)N1)C2=CC=C(C=C2)C(F)(F)F)C(=O)NC3=C(C=C4C(=C3)C=NN4)F
In short: as §1

[10] = compound: CC1=C(C2=C(C=C1)C(=O)C3=CC=CC=C3N2CCCN)C
In short: as §1

[11] = compound: CC1=C(C=C(C=C1)NC(=O)C2=CC(=CC=C2)C(C)(C)C#N)NC3=CC4=C(C=C3)N=CN(C4=O)C
In short: as §1

[12] = compound: CC1=C(C=C(C=C1)NC(=O)C2=CC(=CC=C2)N(C)C)NC(=O)C3=CC=C(C=C3)O
In short: as §1

[13] = compound: CC1=CC=C(C=C1)SC2=C3C=C(SC3=CN=C2)C(=O)N
In short: as §1

[14] = compound: CC1=NC(=CC=C1)C2=C(N=C(N2)C(C)(C)C)C3=CC4=NC=CN=C4C=C3
In short: as §1

[15] = compound: CCCCN(Cc1ccc(C(=O)NO)cc1)C(=O)Nc1ccccc1 [Nexturastat A]
In short: as §1

[16] = compound: CCCS(=O)(=O)Nc1ccc(F)c(C(=O)c2c[nH]c3ncc(-c4ccc(Cl)cc4)cc23)c1F [vemurafenib]
In short: as §1

[17] = compound: CCCS(=O)(=O)Nc1ccc(F)c(C(=O)c2c[nH]c3ncc(Cl)cc23)c1F
In short: as §1

[18] = compound: CCCc1cc(C)[nH]c(=O)c1CNC(=O)c1cc(-c2ccnc(N3CCN(C)CC3)c2)cc2c1cnn2C(C)C
In short: as §1

[19] = compound: CCN(CC)Cc1ccc2cc(COC(=O)Nc3ccc(C(=O)NO)cc3)ccc2c1 [givinostat]
In short: as §1

[20] = compound: CCN(CCCOc1ccc2c(Nc3cc(CC(=O)Nc4cccc(F)c4)[nH]n3)ncnc2c1)CCOP(=O)(O)O [barasertib]
In short: as §1

Target	log2 fold change [1]	log2 fold change [2]	log2 fold change [3]	log2 fold change [4]	log2 fold change [5]	log2 fold change [6]	log2 fold change [7]	log2 fold change [8]	log2 fold change [9]	log2 fold change [10]	log2 fold change [11]	log2 fold change [12]	log2 fold change [13]	log2 fold change [14]	log2 fold change [15]	log2 fold change [16]	log2 fold change [17]	log2 fold change [18]	log2 fold change [19]	log2 fold change [20]
LSM12 isoform 2 (UniProt Q3MHD2)	inactive: -0.038	inactive: -0.034	inactive: -0.024	inactive: 0.072	inactive: -0.009	inactive: 0.055	inactive: 0.026	inactive: 0.039	inactive: -0.044	inactive: 0.058	inactive: 0.004	inactive: -0.002	inactive: 0.003	inactive: 0.015	inactive: 0.077	inactive: 0.053	inactive: 0.046	inactive: 0.03	inactive: 0.052	inactive: 0.022
MAN2B1 (UniProt O00754)	inactive: 0.046	inactive: 0	inactive: -0.014	inactive: -0.005	inactive: 0.033	inactive: 0.004	inactive: 0.027	inactive: -0.024	inactive: -0.029	inactive: -0.017	inactive: -0.011	inactive: 0.041	inactive: -0.005	inactive: 0.092	inactive: -0.01	inactive: 0.102	inactive: 0.008	inactive: 0.045	inactive: -0.221	inactive: -0.028
MACC1 (UniProt Q6ZN28)	inactive: -0.027	inactive: -0.038	inactive: -0.253	inactive: 0.007	inactive: -0.074	inactive: -0.028	inactive: 0.109	inactive: 0.061	inactive: -0.282	inactive: 0.025	inactive: 0.142	inactive: -0.076	inactive: 0.059	inactive: -0.014	inactive: -0.043	inactive: -0.042	inactive: 0.031	inactive: 0.042	inactive: 0.074	inactive: -0.003
MAPK12 (UniProt P53778)	inactive: 0.074	inactive: 0.066	inactive: 0.201	inactive: -0.046	inactive: 0.001	inactive: 0.388	inactive: -0.005	inactive: -0.004	–	inactive: -0.025	inactive: -0.043	inactive: 0.017	inactive: -0.022	inactive: 0.09	inactive: -0.112	inactive: 0.019	inactive: 0.104	inactive: 0.016	inactive: -0.058	inactive: -0.031
LTN1 isoform 3 (UniProt O94822)	inactive: -0.05	inactive: -0.015	inactive: -0.02	inactive: 0.007	inactive: -0.136	active: -0.305	inactive: 0.055	inactive: 0.098	–	inactive: 0.093	inactive: -0.013	inactive: -0.031	inactive: -0.008	inactive: -0.006	inactive: 0.104	inactive: 0.039	inactive: 0.058	inactive: 0.017	inactive: 0.065	inactive: 0.042
MANEA (UniProt Q5SRI9)	inactive: 0.02	inactive: 0.055	inactive: 0.026	inactive: 0.099	inactive: -0.06	inactive: 0.11	inactive: -0.004	inactive: -0.054	inactive: -0.059	inactive: -0.043	inactive: 0.039	inactive: 0.025	inactive: 0.011	inactive: 0.071	inactive: -0.025	inactive: -0.021	inactive: -0.003	inactive: -0.296	inactive: 0.005	inactive: -0.159
MAPRE3 (UniProt Q9UPY8)	inactive: 0.027	inactive: -0.044	inactive: -0.003	inactive: -0.142	inactive: -0.049	inactive: -0.079	inactive: -0.033	inactive: 0.019	–	inactive: -0.029	inactive: 0	inactive: -0.002	inactive: -0.021	inactive: 0.074	inactive: -0.07	inactive: 0.041	inactive: 0.06	inactive: 0.136	inactive: -0.037	inactive: 0.027
LYPLA2 (UniProt O95372)	inactive: 0.062	inactive: 0.003	inactive: -0.134	inactive: -0.036	inactive: -0.106	inactive: -0.04	inactive: -0.056	inactive: -0.067	–	inactive: 0.197	inactive: 0.043	inactive: -0.131	inactive: 0.082	inactive: -0.056	inactive: -0.071	inactive: 0.132	inactive: 0.038	inactive: -0.001	inactive: -0.055	inactive: -0.099
LYN (UniProt P07948)	inactive: -0.016	active: 0.4	active: -0.456	inactive: 0.045	inactive: 0.018	inactive: -0.03	inactive: 0.24	inactive: 0.065	–	inactive: 0.078	inactive: 0.195	inactive: -0.053	inactive: -0.036	inactive: 0.037	inactive: 0.293	inactive: -0.016	inactive: -0.143	inactive: -0.22	inactive: 0.211	inactive: -0.057
MAP2K1 (UniProt Q02750)	inactive: 0.047	inactive: -0.016	active: -0.349	inactive: 0.004	inactive: -0.066	inactive: 0.023	inactive: 0.015	inactive: -0.061	–	inactive: 0.026	inactive: -0.013	inactive: 0.001	inactive: 0.029	inactive: 0.049	inactive: -0.061	inactive: -0.009	inactive: 0.018	inactive: 0.129	inactive: 0.007	inactive: 0.005
LTO1 (UniProt Q8WV07)	inactive: -0.028	inactive: 0.037	inactive: 0.061	inactive: 0.028	inactive: 0.011	inactive: -0.017	inactive: 0	inactive: -0.028	–	inactive: 0.041	inactive: 0.021	inactive: -0.042	inactive: -0.021	inactive: -0.009	inactive: 0.245	inactive: 0.101	inactive: 0.027	inactive: 0	inactive: -0.121	inactive: -0.04
MAP3K2 (UniProt Q9Y2U5)	inactive: 0.028	inactive: 0.208	inactive: -0.22	inactive: -0.028	inactive: 0.043	inactive: 0.117	inactive: 0.137	inactive: 0.076	–	inactive: -0.056	inactive: 0.001	inactive: -0.04	inactive: 0.003	inactive: 0.003	inactive: 0.028	inactive: 0.016	inactive: -0.055	inactive: -0.068	inactive: -0.057	inactive: -0.039
MARK3 (UniProt P27448)	inactive: -0.071	inactive: -0.026	active: -2.03	inactive: 0.014	inactive: -0.035	inactive: -0.171	inactive: 0.084	inactive: 0.156	–	inactive: 0.026	inactive: -0.017	inactive: 0.02	inactive: 0.067	inactive: -0.029	inactive: 0.074	inactive: 0	inactive: 0.004	inactive: 0.077	inactive: 0.038	inactive: 0.023
MAP3K4 isoform 2 (UniProt Q9Y6R4)	inactive: 0.049	inactive: 0	inactive: 0.198	inactive: 0.007	inactive: -0.014	inactive: -0.027	inactive: -0.023	inactive: 0.014	–	inactive: 0.002	inactive: -0.012	inactive: 0.026	inactive: -0.018	inactive: -0.003	inactive: 0.008	inactive: -0.033	inactive: -0.001	inactive: -0.012	inactive: -0.015	inactive: 0.02
MARCKS (UniProt P29966)	inactive: -0.077	inactive: 0.071	inactive: 0.014	inactive: 0.025	inactive: -0.099	inactive: 0.039	inactive: 0.134	inactive: -0.109	–	inactive: 0.002	inactive: -0.001	inactive: -0.066	inactive: 0.01	inactive: 0.072	inactive: -0.104	inactive: 0.047	inactive: -0.004	inactive: 0.252	inactive: -0.096	inactive: 0.005

Complete entries as entered above. Order of values: log2 fold change [1] | log2 fold change [2] | log2 fold change [3] | log2 fold change [4] | log2 fold change [5] | log2 fold change [6] | log2 fold change [7] | log2 fold change [8] | log2 fold change [9] | log2 fold change [10] | log2 fold change [11] | log2 fold change [12] | log2 fold change [13] | log2 fold change [14] | log2 fold change [15] | log2 fold change [16] | log2 fold change [17] | log2 fold change [18] | log2 fold change [19] | log2 fold change [20]
MAPRE3 (UniProt Q9UPY8) is entered as inactive: 0.027 | inactive: -0.044 | inactive: -0.003 | inactive: -0.142 | inactive: -0.049 | inactive: -0.079 | inactive: -0.033 | inactive: 0.019 | – | inactive: -0.029 | inactive: 0 | inactive: -0.002 | inactive: -0.021 | inactive: 0.074 | inactive: -0.07 | inactive: 0.041 | inactive: 0.06 | inactive: 0.136 | inactive: -0.037 | inactive: 0.027
MACC1 (UniProt Q6ZN28) is entered as inactive: -0.027 | inactive: -0.038 | inactive: -0.253 | inactive: 0.007 | inactive: -0.074 | inactive: -0.028 | inactive: 0.109 | inactive: 0.061 | inactive: -0.282 | inactive: 0.025 | inactive: 0.142 | inactive: -0.076 | inactive: 0.059 | inactive: -0.014 | inactive: -0.043 | inactive: -0.042 | inactive: 0.031 | inactive: 0.042 | inactive: 0.074 | inactive: -0.003
